Tested on: ct-DNA
Experiment: Thermal calf thymus DNA denaturation
Conditions: 100 μM, 37C, 24 hr; control 82.8 C

Structure (SMILES): O=S(=O)(O)c1cc2c(O)c(c1)Cc1cc(S(=O)(=O)O)cc(c1O)Cc1cc(S(=O)(=O)O)cc(c1O)Cc1cc(S(=O)(=O)O)cc(c1O)Cc1cc(S(=O)(=O)O)cc(c1O)Cc1cc(S(=O)(=O)O)cc(c1O)C2 [GI-2029]
- Tm value of ct-DNA: 82.3 C

Structure (SMILES): COc1c2cc(S(=O)(=O)[O-])cc1Cc1cc(S(=O)(=O)[O-])cc(c1OC)Cc1cc(S(=O)(=O)[O-])cc(c1OC)Cc1cc(S(=O)(=O)[O-])cc(c1OC)Cc1cc(S(=O)(=O)[O-])cc(c1OC)Cc1cc(S(=O)(=O)[O-])cc(c1OC)Cc1cc(S(=O)(=O)[O-])cc(c1OC)Cc1cc(S(=O)(=O)[O-])cc(c1OC)C2.[Na+].[Na+].[Na+].[Na+].[Na+].[Na+].[Na+].[Na+] [GI-2021]
- Tm value of ct-DNA: 81.5 C

Structure (SMILES): O=S(=O)(O)c1cc2c(O)c(c1)Cc1cc(S(=O)(=O)O)cc(c1O)Cc1cc(S(=O)(=O)O)cc(c1O)Cc1cc(S(=O)(=O)O)cc(c1O)Cc1cc(S(=O)(=O)O)cc(c1O)Cc1cc(S(=O)(=O)O)cc(c1O)Cc1cc(S(=O)(=O)O)cc(c1O)Cc1cc(S(=O)(=O)O)cc(c1O)C2 [GI-2041]
- Tm value of ct-DNA: 83 C

— publication PMC2365111, “Cytotoxicity of Poly(Phenolic)Sulfonates and Their Sodium Salts in L1210 Lymphoid Leukemia Cells” (Metal-Based Drugs, 1998)
